# From PubChem BioAssay AID493014 (National Center for Advancing Translational Sciences (NCATS), 2011)
# The other results are listed elsewhere or left out. Further columns of the screen follow, without active or inactive calls. Compounds called inactive in the main read-out are mostly missing here. Potencies come from curve fits of mixed quality, noted in brackets.
# Assay: qHTS Assay to Find Inhibitors of Chronic Active B-Cell Receptor Signaling
# Details: ABC-DLBCL IkBa-CBG/CBR reporter, luminescence ratio (green luciferase fused to IkBa over red control in TMD8 lymphoma cells), 4 h
# Outline: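 Cell line TMD8 (human ABC DLBCL), stably expressing tet-inducible CBG68-IkBa fusion and CBR; IMDM/0.5% FBS; cpd up to 46 uM; dox induction, 4 h, 37C/5% CO2; dual luminescence; green/red ratio; MG132 control.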
# [1] = measured here: CBR red luminescence, cell number
# [2] = measured here: IkBa-CBG green luminescence
Compound,AC50 [1],AC50 [2]
COc1ccc(S(=O)(=O)N/N=C\c2ccc(OC)c(COc3ccc(C)cc3[N+](=O)[O-])c2)cc1,"2.91 µM [rising, partial curve, poor fit]",–
COc1cc2cc(C)nc(Cc3cccc4ccccc34)c2cc1OC,"16.4 µM [rising, single point]",–
O=C(CCc1ccccc1)OCC(=O)c1ccc([N+](=O)[O-])cc1,"3.55 µM [rising, single point]",–
COc1ccc(C(=O)Nc2cccc(NC(=O)c3cccs3)c2)cc1OC,"12.6 µM [falling, partial curve, poor fit]",–
COc1ccc(/C=C/C(=O)c2ccc([N+](=O)[O-])o2)cc1OC,"4.11 µM [falling, partial curve, poor fit]",–
CN1CCN(c2ccc(Cl)cc2NC(=O)CC2OC(=O)c3ccccc32)CC1 (stereo not given),"25.9 µM [falling, single point]",–
CCc1cc2c(nc1CC)CCN(CC/C(C)=N/O[C@@H](C)c1cc(-c3c(C)cc(C)cc3C)no1)C2,"8.2 µM [falling, partial curve]",–
COc1cc2c(cc1OC)C(c1cc3cc(OC)c(OC)cc3[nH]c1=O)N(C(=O)C1CC1)CC2 (stereo not given),–,"11.2 µM [falling, partial curve]"
O=C(NCc1cccnc1)C(=O)Nc1nc(-c2ccccc2)cs1,"10 µM [falling, partial curve, poor fit]",–
CC(=O)Nc1nc(C)c(-c2csc(Nc3ccccn3)n2)s1,"10 µM [falling, partial curve]",–
CCCn1nc(NC(=O)c2cccs2)c2cc3cc(OC)ccc3nc21,"0.731 µM [falling, full curve, poor fit]",–
COc1cc2c(cc1OC)CN(CC(=O)Nc1ccc(F)cc1)C(C(=O)O)C2 (stereo not given),"17.8 µM [falling, partial curve, poor fit]",–
O=C(CNC(=O)c1cccs1)N/N=C/c1ccc(O)cc1O,"10 µM [falling, partial curve, poor fit]",–
CN(C1CCCCC1)S(=O)(=O)c1ccc2[nH]c(=O)oc2c1,"1.12 µM [rising, full curve, poor fit]",–
Cn1ncc(Cl)c1C(=O)N1CCN(c2ccc(F)cc2)CC1,"28.2 µM [falling, single point]",–
Cc1ccc(CSC2=NCCN2C(=O)c2ccc([N+](=O)[O-])cc2)cc1,–,"35.5 µM [rising, partial curve, poor fit]"
COc1ccccc1CNC(=O)c1ccccc1N,"6.51 µM [falling, full curve, poor fit]",–
COC(=O)CSc1nc2ccc(C)cc2cc1C#N,"11.2 µM [falling, partial curve, poor fit]",–
COc1ccc(NC(=O)CSc2nnc(C)n2N)cc1S(=O)(=O)N1CCCCC1,"6.51 µM [rising, single point]",–
O=c1c2c([N+](=O)[O-])cc([N+](=O)[O-])cc2sn1Cc1ccccc1,"22.4 µM [falling, single point]",–

# Filtered by structure: the compounds so far with a Cl atom (2)
Compound,AC50 [1],AC50 [2]
CN1CCN(c2ccc(Cl)cc2NC(=O)CC2OC(=O)c3ccccc32)CC1 (stereo not given),"25.9 µM [falling, single point]",–
Cn1ncc(Cl)c1C(=O)N1CCN(c2ccc(F)cc2)CC1,"28.2 µM [falling, single point]",–

# Of the compounds above, 2 contain an NH in an aromatic ring.
Compound,AC50 [1],AC50 [2]
COc1cc2c(cc1OC)C(c1cc3cc(OC)c(OC)cc3[nH]c1=O)N(C(=O)C1CC1)CC2 (stereo not given),–,"11.2 µM [falling, partial curve]"
CN(C1CCCCC1)S(=O)(=O)c1ccc2[nH]c(=O)oc2c1,"1.12 µM [rising, full curve, poor fit]",–

# More entries follow.

Compound,AC50 [1],AC50 [2]
O=C(NCCc1cccnc1)c1cc(COc2ccc(F)cc2Cl)on1,"35.5 µM [falling, single point]",–
O=C(Cn1nnc(-c2ccc(OCc3ccccc3F)cc2)n1)N1CCOCC1,"0.731 µM [falling, full curve]",–
CCCCn1c(=N)n(CC(=O)c2ccc([N+](=O)[O-])cc2)c2ccccc21,"14.1 µM [rising, single point]",–
Cc1cc(C)nc(Sc2ccc(/C=C(\C#N)C(=O)Nc3ccccc3)o2)n1,"1.64 µM [rising, partial curve, poor fit]",–
CCC(=O)N1CCC2(CC1)Oc1ccc(F)cc1C(=O)C21CC(c2ccc(Cl)cc2)=NO1 (stereo not given),"35.5 µM [falling, single point]",–
Cc1cc(-c2csc(NC(=O)c3cc4ccccc4o3)n2)c(C)n1C,"18.4 µM [falling, partial curve, poor fit]",–
O=C(COc1ccc(Cl)cc1Br)Nc1ccncc1,"3.16 µM [rising, partial curve, poor fit]",–
Cc1occc1C(=O)Nc1c(F)c(F)c(F)c(F)c1F,–,"29.1 µM [falling, single point]"
Cc1nc(N2CCN(c3ccccn3)CC2)c2c(C)c(C(=O)Nc3c(F)cc(F)cc3Br)sc2n1,"2.82 µM [falling, full curve, poor fit]",–
Cc1ccc(C2c3c(oc4ccccc4c3=O)C(=O)N2c2nncs2)cc1 (stereo not given),"11.2 µM [rising, partial curve, poor fit]",–
O=C1C=C(/C=C/c2ccccc2)C[C@@H](c2ccc(F)cc2)C1,"18.4 µM [rising, partial curve]",–
CCSc1nnc2c(n1)OC(c1ccc(OCC(=O)O)cc1)Nc1ccccc1-2 (stereo not given),"11.2 µM [falling, partial curve, poor fit]",–
CC1CC(Nc2ccccc2N)=CC(=O)O1 (stereo not given),–,"32.6 µM [rising, partial curve, poor fit]"
COCCN(C(=O)CSc1nnc(-c2ccccc2OC)o1)c1c(N)n(CC(C)C)c(=O)[nH]c1=O,"32.6 µM [rising, partial curve, poor fit]",–
CC(=O)N1CCOc2ccc(S(=O)(=O)NC[C@H]3O[C@@H](n4cnc5c(N)ncnc54)[C@H](O)[C@@H]3O)cc21,"18.4 µM [rising, partial curve, poor fit]",–
COc1ccc(C(=O)CCN2CCN(c3ccccc3F)CC2)cc1,"35.5 µM [falling, single point]",–
COc1cccc(-c2nc(C(N)=O)c3[nH]c(=O)n(-c4ccccc4)c3n2)c1OC,"29.1 µM [rising, single point]",–
COc1cc(OC)cc(C(=O)OCC(=O)c2ccc(S(=O)(=O)N3CCCCC3)cc2)c1,"29.1 µM [rising, partial curve, poor fit]",–
CCCC(=O)N/C(N)=N/c1nc2ccccc2o1,"10 µM [falling, partial curve]",–
O=C(CN1C(=O)/C(=C/c2ccccc2F)Sc2ccccc21)NCc1cccnc1,"35.5 µM [falling, single point]",–

Compound,AC50 [1],AC50 [2]
CC1(C)CC(=O)C(CS(=O)(=O)c2ccccc2)=C(O)C1,"22.4 µM [rising, single point]",–
COc1ccc(Cl)cc1Nc1nc(-c2sc(NC(=O)C(C)(C)C)nc2C)cs1,"10 µM [falling, partial curve]",–
CC(=O)c1ccc(OCc2ccccc2)c(C)c1O,"16.4 µM [rising, partial curve]",–
Cc1cccc(OCC(=O)NNc2c3ccccc3nc3ccccc23)c1,"35.5 µM [falling, single point]",–
Oc1c(CN2CCN(c3ccccc3)CC2)cc(Br)c2cccnc12,"3.16 µM [rising, single point]","3.16 µM [falling, partial curve, poor fit]"
COC(=O)c1ccc(NC(=O)CSc2nn3c(=O)c(C)nnc3s2)cc1,"12.6 µM [falling, partial curve, poor fit]","2.82 µM [rising, partial curve, poor fit]"
CCC(c1nnnn1CCc1ccccc1)N1CCN(C(=O)c2ccco2)CC1 (stereo not given),"35.5 µM [falling, single point]","35.5 µM [rising, partial curve, poor fit]"
Cc1cccc2sc(N(Cc3cccnc3)C(=O)Cc3ccccc3)nc12,"11.2 µM [falling, partial curve]","15.8 µM [rising, partial curve, poor fit]"
CC(C)C(C)NC(=O)COc1ccc(-c2ccccc2)cc1 (stereo not given),"32.6 µM [rising, single point]",–
COc1cc(/C=C/C(=O)N2CCCC2)cc(OC)c1OC,–,"23.1 µM [falling, partial curve, poor fit]"
O=C(Nc1cc(-c2nc3ccccc3s2)ccc1Cl)c1ccc2c(c1)OCO2,"12.6 µM [rising, partial curve, poor fit]",–
CCCCNS(=O)(=O)c1ccc2nc(SCC(=O)Nc3sccc3C#N)[nH]c2c1,"7.08 µM [falling, partial curve, poor fit]",–
CCN(CC)S(=O)(=O)c1cccc(C(=O)Nc2ccc(Cl)cn2)c1,"6.51 µM [falling, single point]",–
Cc1ccc(C(=O)O)cc1NC(=S)NC(=O)c1ccc(COc2ccccc2)cc1,"22.4 µM [falling, single point]",–
Nc1nc2ccc([N+](=O)[O-])c(N)c2s1,"10 µM [rising, partial curve]","11.2 µM [falling, partial curve, poor fit]"
N#Cc1ccccc1/C=N/Nc1nc(-c2ccccc2)c2cc(Cl)ccc2n1,"0.562 µM [falling, full curve, poor fit]",–
CC(=O)Nc1cccc(C(=O)OCC(=O)NC(C)c2ccc(F)cc2)c1 (stereo not given),"10 µM [rising, partial curve, poor fit]",–
Cc1ccc(Cn2cnc3ccccc32)cc1,"18.4 µM [rising, single point]",–
O=C(c1cc(Cl)cc(Cl)c1)N1CCC(=O)N(C(COCc2ccccc2)Cc2ccccc2)CC1 (stereo not given),"29.1 µM [falling, single point]",–
O=C(O)CC12CC3CC(C1)CC(n1ncc(NCc4ccco4)c(Cl)c1=O)(C3)C2,"15.8 µM [rising, single point]",–
